Results are given in words; binding and its absence hold for the method and conditions named. Some results given as binding are weak or reduced against the parent protein; the word gives no strength. One block for each binder: values may come before it.
Legend:
[1] = target: human neuroglobin Y44A variant (human) (UniProt Q9NPG2); test: cross-linking; H2O2-induced covalent Tyr-Tyr links: dimers isolated by SEC (HiLoad 16/600 Superdex 75) after 15-fold (wild type) or 17-fold (Y44A) excess of H2O2, S-alkylated, trypsin digest, LC-ESI-MS/MS peptide mapping; both purified
[2] = target: human neuroglobin Y44FC46AC55A variant (human) (UniProt Q9NPG2); test: SEC-MALS; HPLC-SEC-PDA-MALS, Superdex 200 10/300 GL, 1x PBS pH 7.4, 25°C, detection at 412 nm; 1 μg/μL protein incubated 20 h at 4°C with different molar excess of H2O2 before the run; monomer to covalent dimer; both purified
[3] = target: human neuroglobin C46AC55A variant (human) (UniProt Q9NPG2); test: as above

binding [1]: binds weakly
B1: human neuroglobin Y44A variant (natural protein, UniProt Q9NPG2 1-151, looked up)
chain: MERPEPELIRQSWRAVSRSPLEHGTVLFARLFALEPDLLPLFQANCRQFSSPEDCLSSPEFLDHIRKVMLVIDAAVTNVEDLSSLEEYLASLGRKHRAVGVKLSSFSTVGESLLYMLEKCLGPAFTPATRAAWSQLYGAVVQAMSRGWDGE
notes: human neuroglobin (hNgb) with Y44A; also called hNgb Y44A

binding [2]: no binding
B2: human neuroglobin Y44FC46AC55A variant (protein, UniProt Q9NPG2 1-151)
chain: MERPEPELIRQSWRAVSRSPLEHGTVLFARLFALEPDLLPLFQFNARQFSSPEDALSSPEFLDHIRKVMLVIDAAVTNVEDLSSLEEYLASLGRKHRAVGVKLSSFSTVGESLLYMLEKCLGPAFTPATRAAWSQLYGAVVQAMSRGWDGE

binding [3]: no binding
B3: human neuroglobin C46AC55A variant (protein, UniProt Q9NPG2 1-151)
chain: MERPEPELIRQSWRAVSRSPLEHGTVLFARLFALEPDLLPLFQYNARQFSSPEDALSSPEFLDHIRKVMLVIDAAVTNVEDLSSLEEYLASLGRKHRAVGVKLSSFSTVGESLLYMLEKCLGPAFTPATRAAWSQLYGAVVQAMSRGWDGE

From paper PMC12096953, “Insights into heme degradation and hydrogen peroxide-induced dimerization of human neuroglobin” (Bioscience Reports, 2025)
